These are yes or no findings as the source states them, for the method shown.

This test concerns the target HA-tagged APOBEC3G (UniProt Q9HC16). Description: SEC; lysates of purified HIV-1ΔVif virions with or without HA-A3G on Superose 6 HR 10/30 (FPLC); 50 mM HEPES pH 7.4, 125 mM NaCl, 0.1% NP-40, 1 mM dithiothreitol, 10% glycerol; 1-ml fractions immunoblotted.

With “HIV-1 gp41 (from UniProt P03377 517-861)”, the binding entry is recorded as “no binding”.
